According to the supplement of paper PMC12067093, “Discovery and optimisation of a covalent ligand for TRIM25 and its application to targeted protein ubiquitination” (Chemical Science, 2025):
The list shows a part of the results.

Chains of the proteins cited; added tags and fusions are not shown. Lines headed by an entry give the natural chain unless they say otherwise; changes in a name come on top.
UniProt P00390: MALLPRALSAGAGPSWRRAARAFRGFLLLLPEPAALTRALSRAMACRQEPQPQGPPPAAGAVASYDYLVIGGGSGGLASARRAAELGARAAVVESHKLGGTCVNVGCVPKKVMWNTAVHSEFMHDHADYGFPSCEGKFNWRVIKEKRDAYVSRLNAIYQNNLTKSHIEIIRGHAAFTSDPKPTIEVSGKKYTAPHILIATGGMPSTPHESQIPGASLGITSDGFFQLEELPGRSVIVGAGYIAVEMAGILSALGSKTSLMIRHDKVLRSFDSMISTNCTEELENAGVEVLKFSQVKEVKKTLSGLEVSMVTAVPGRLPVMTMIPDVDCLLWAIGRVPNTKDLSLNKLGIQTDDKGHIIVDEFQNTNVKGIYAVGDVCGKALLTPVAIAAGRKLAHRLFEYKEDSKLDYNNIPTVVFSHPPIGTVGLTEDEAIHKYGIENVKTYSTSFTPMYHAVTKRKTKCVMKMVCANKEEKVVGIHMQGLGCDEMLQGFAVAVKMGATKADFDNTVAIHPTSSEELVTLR
UniProt P43250, whole entry, looked up: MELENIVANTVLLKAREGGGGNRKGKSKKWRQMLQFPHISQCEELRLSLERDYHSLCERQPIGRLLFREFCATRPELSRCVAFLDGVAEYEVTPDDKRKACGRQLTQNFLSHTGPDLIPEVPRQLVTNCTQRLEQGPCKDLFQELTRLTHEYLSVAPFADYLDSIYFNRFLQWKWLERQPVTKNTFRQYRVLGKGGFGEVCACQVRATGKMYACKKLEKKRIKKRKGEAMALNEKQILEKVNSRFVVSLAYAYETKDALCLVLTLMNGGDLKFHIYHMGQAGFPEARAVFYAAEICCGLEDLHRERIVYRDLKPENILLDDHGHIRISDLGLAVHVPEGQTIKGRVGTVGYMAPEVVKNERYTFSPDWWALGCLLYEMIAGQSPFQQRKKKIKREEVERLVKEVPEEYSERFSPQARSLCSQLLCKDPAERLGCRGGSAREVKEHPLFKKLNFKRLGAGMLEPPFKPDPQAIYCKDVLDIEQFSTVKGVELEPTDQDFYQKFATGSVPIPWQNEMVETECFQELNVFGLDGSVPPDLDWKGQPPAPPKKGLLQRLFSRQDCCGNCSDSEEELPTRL
UniProt P28799: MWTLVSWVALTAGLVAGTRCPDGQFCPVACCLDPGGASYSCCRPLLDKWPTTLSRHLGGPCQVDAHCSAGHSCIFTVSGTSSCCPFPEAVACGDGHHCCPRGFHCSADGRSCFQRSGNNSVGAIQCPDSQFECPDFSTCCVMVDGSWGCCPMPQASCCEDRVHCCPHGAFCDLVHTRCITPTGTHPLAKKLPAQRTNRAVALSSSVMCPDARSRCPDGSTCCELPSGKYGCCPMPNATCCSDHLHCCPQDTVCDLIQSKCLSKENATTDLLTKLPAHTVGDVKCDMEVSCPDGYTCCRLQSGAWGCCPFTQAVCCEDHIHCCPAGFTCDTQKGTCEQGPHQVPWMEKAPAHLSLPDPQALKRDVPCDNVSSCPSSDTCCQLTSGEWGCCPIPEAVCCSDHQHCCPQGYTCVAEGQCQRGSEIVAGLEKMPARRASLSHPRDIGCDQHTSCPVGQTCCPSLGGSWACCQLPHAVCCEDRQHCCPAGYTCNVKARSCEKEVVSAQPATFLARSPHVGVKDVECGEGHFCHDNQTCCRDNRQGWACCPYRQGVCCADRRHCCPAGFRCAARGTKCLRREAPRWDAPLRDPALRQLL
UniProt P57764: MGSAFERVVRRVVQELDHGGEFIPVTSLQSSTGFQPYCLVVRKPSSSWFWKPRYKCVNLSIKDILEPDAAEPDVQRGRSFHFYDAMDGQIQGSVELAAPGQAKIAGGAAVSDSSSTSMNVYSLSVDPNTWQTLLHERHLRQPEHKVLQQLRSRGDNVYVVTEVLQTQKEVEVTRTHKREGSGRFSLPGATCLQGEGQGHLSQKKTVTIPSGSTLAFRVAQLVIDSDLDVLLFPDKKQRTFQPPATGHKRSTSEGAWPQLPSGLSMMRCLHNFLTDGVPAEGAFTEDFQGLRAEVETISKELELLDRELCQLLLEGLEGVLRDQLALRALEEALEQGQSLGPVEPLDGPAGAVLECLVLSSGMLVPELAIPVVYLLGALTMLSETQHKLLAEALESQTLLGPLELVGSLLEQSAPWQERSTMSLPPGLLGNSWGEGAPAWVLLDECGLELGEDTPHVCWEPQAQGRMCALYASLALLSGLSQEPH
UniProt Q92664: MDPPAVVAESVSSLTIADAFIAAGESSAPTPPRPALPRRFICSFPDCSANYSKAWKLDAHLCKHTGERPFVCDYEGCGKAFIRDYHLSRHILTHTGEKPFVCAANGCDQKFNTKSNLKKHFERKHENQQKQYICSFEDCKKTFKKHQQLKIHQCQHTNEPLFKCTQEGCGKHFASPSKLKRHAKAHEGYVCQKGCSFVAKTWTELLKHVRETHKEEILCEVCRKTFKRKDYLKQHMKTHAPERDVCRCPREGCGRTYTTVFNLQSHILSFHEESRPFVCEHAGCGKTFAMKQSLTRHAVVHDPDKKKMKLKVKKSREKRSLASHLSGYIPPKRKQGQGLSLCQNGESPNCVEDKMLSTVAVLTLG
UniProt Q969F1: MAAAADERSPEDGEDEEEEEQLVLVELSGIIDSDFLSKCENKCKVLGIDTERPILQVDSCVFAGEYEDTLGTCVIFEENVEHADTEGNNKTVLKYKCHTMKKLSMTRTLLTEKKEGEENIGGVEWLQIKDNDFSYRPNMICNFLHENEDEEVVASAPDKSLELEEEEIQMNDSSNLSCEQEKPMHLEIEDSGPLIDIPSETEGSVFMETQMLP
UniProt O75367, whole entry, looked up: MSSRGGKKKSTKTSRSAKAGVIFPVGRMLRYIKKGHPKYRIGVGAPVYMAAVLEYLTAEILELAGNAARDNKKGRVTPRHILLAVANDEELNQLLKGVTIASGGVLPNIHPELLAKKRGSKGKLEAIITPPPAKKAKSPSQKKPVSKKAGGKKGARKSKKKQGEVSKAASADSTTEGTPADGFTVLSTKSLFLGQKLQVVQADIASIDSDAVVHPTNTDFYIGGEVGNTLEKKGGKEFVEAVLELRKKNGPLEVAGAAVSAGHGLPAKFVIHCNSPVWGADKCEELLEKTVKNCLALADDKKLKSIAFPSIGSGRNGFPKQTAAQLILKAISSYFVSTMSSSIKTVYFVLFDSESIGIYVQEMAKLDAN
UniProt Q68CZ6: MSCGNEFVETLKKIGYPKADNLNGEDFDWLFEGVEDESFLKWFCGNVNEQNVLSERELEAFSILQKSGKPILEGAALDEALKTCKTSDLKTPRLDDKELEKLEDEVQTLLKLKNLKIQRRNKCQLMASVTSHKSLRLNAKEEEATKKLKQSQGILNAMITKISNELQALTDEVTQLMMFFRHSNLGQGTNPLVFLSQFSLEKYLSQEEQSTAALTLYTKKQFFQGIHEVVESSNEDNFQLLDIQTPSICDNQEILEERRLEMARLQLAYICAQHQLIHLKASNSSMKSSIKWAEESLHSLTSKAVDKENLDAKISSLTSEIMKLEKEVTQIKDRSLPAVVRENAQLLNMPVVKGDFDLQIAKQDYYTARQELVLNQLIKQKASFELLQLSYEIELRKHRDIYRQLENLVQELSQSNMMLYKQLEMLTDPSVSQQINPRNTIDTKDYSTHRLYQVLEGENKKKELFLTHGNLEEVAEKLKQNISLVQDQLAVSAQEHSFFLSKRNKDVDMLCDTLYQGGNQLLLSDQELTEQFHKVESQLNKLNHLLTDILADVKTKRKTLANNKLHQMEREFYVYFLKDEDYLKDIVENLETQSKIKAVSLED
UniProt Q9UBQ7: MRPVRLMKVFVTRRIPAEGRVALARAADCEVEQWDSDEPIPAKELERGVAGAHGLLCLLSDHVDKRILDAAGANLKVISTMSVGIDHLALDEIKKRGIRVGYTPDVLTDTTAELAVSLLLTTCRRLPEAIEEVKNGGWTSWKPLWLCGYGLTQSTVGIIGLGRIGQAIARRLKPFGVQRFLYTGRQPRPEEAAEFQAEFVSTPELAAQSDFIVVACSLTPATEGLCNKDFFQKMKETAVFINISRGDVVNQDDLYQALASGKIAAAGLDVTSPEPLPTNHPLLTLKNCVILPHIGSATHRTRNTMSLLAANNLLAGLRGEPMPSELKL
UniProt Q8WW33: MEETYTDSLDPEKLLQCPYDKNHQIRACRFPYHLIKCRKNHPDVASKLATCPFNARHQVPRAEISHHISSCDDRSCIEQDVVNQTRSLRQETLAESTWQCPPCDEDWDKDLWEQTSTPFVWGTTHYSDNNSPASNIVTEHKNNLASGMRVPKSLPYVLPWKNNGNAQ
UniProt O00178: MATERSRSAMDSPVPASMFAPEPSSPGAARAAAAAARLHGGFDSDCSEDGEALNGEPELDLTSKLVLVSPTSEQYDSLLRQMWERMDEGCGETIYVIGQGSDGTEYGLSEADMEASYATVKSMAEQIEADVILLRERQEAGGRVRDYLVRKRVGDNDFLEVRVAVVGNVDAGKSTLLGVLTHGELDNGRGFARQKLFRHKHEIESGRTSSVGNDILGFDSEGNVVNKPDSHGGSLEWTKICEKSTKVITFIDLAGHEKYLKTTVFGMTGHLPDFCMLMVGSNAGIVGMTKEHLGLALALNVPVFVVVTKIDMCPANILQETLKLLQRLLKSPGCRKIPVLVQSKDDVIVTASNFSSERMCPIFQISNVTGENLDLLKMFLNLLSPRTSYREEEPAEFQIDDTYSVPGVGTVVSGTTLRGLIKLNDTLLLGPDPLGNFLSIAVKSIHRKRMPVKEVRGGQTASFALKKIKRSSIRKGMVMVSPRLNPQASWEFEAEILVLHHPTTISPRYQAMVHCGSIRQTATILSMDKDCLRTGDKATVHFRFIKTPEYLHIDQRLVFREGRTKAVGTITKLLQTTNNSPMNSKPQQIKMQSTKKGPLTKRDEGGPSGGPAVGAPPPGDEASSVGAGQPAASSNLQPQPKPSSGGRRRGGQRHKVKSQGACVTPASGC
UniProt P25098: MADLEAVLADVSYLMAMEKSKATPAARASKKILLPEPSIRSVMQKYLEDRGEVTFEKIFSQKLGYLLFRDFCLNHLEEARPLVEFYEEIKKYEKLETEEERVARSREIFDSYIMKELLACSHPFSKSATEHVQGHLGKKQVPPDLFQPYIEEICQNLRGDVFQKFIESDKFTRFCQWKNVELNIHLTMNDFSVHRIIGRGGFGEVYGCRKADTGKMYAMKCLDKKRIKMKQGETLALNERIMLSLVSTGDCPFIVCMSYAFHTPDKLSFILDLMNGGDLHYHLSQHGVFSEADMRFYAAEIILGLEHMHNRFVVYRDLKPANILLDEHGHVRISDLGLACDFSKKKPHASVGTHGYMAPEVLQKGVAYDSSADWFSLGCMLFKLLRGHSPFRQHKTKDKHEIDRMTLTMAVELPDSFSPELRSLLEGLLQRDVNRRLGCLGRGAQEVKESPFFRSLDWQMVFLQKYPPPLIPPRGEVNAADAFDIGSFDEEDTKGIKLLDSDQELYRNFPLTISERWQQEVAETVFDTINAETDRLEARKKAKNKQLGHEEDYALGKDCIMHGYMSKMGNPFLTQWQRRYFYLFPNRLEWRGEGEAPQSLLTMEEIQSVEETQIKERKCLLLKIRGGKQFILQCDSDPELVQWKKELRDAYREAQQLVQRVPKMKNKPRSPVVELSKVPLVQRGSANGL
UniProt P78347: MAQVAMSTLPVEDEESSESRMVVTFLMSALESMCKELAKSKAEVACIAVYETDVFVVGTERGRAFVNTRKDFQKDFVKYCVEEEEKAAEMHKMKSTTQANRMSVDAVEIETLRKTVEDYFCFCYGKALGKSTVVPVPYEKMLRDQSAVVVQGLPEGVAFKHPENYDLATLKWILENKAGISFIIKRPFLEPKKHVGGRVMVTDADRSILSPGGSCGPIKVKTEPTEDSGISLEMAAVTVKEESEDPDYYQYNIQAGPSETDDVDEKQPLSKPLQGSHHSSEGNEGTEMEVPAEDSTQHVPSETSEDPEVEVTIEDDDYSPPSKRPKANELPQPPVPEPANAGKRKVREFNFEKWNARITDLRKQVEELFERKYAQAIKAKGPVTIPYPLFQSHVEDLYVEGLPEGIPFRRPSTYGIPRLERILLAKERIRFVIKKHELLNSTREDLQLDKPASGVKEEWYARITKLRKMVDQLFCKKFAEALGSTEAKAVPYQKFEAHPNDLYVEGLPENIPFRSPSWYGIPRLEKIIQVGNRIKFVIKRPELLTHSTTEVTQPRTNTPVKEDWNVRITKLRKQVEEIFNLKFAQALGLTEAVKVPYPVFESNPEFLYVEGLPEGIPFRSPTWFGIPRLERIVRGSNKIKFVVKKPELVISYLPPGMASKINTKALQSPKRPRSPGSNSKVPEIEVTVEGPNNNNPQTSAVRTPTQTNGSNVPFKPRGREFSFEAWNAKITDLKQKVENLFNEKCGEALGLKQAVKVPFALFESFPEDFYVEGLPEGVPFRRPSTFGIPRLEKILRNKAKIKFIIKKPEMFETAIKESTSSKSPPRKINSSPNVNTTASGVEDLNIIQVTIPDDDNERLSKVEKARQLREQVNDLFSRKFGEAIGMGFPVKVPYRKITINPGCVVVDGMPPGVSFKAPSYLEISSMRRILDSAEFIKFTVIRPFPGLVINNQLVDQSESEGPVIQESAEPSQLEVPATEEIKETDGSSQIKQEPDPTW

Compound: CC1Cc2ccccc2N1C(=O)C1CCCN(C1)C(=O)CCl (mixture of isomers) [TRIM25 ligand 11 (diastereomer mixture)]
Experiment: probe-labelled cysteine peptide fold change vs DMSO (competition) (log2 fold change); higher = less target engagement (more negative = stronger competition)
Conditions: 10 µM; THP-1; incubation time: 4 h
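Further: competitive chemoproteomic profiling in live THP-1 cells with an iodoacetamide desthiobiotin (IA-DTB) probe, comparing probe-labelled peptide intensities in compound-treated cells against DMSO-treated controls.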

Target	probe-labelled cysteine peptide fold change
GTF3C5_Q9Y5Q8_26_MVCVEYPGVVR (UniProt Q9Y5Q8)	0.168
HADH_Q16836_211_ALGKHPVSCK (UniProt Q16836)	-0.647
GSN_P06396_215_ATEVPVSWESFNNGDCFILDLGNNIHQWCGSNSNR (UniProt P06396)	-0.26
GPKOW_Q92917_137_GCTPSGEGADSEPR (UniProt Q92917)	-0.0976
HAUS1_Q96CS2_156_CLQEDVK (UniProt Q96CS2)	-0.0729
GSR_P00390_134_KVMWNTAVHSEFMHDHADYGFPSCEGK (UniProt P00390)	-0.252
HADHA_P40939_97+110_PGCFIAGADINMLAACK (UniProt P40939)	-0.0879
GRK6_P43250_425_SLCSQLLCK (UniProt P43250)	-0.0327
GRN_P28799_335_GTCEQGPHQVPWMEK (UniProt P28799)	-0.0148
GYG1_P46976_89_LHCWSLTQYSK (UniProt P46976)	0.145
GSN_P06396_331_SEDCFILDHGK (UniProt P06396)	0.0215
GTPBP3_Q969Y2_46_CGIAVIR (UniProt Q969Y2)	-0.0843
GSDMD_P57764_191_FSLPGATCLQGEGQGHLSQKK (UniProt P57764)	-0.0128
GTF3A_Q92664_222_ETHKEEILCEVCR (UniProt Q92664)	-0.0323
GTF3C6_Q969F1_178_SLELEEEEIQMNDSSNLSCEQEK (UniProt Q969F1)	0.162
H2AFY_O75367_276_FVIHCNSPVWGADKCEELLEK (UniProt O75367)	-0.321
GRB2_P62993_198_GACHGQTGMFPR (UniProt P62993)	0.00458
GTF3C1_Q12789_317+320_LQEIHPECGPCK (UniProt Q12789)	-0.00301
HAUS3_Q68CZ6_271_LQLAYICAQHQLIHLK (UniProt Q68CZ6)	-0.131

Target	probe-labelled cysteine peptide fold change
GRHPR_Q9UBQ7_57_GVAGAHGLLCLLSDHVDK (UniProt Q9UBQ7)	0.0838
GSDMD_P57764_467_MCALYASLALLSGLSQEPH (UniProt P57764)	0.104
GTSF1_Q8WW33_100+103_QETLAESTWQCPPCDEDWDK (UniProt Q8WW33)	0.167
GRWD1_Q9BQ67_235_LLTGDCQK (UniProt Q9BQ67)	-0.0301
GRHPR_Q9UBQ7_57_GVAGAHGLLCLLSDHVDKR (UniProt Q9UBQ7)	-0.0063
GTPBP1_O00178_360_MCPIFQISNVTGENLDLLK (UniProt O00178)	0.138
GRK2_P25098_559_DCIMHGYMSK (UniProt P25098)	-0.133
HARS2_P49590_84_ILDLVISCFK (UniProt P49590)	-0.36
GTF3A_Q92664_191_AHEGYVCQK (UniProt Q92664)	0.0464
GSPT1_P15170_381+387_GIEEEEILPGFILCDPNNLCHSGR (UniProt P15170)	0.195
GTF3C2_Q8WUA4_608_LYPFQCFLAHDQAVR (UniProt Q8WUA4)	0.0279
GTF2I_P78347_215_SILSPGGSCGPIK (UniProt P78347)	-0.0394
H2AFY_O75367_276+286_FVIHCNSPVWGADKCEELLEK (UniProt O75367)	-0.287
HARS_P12081_224_ILDGMFAICGVSDSK (UniProt P12081)	0.00218
GRN_P28799_534_DVECGEGHFCHDNQTCCR (UniProt P28799)	-0.0572
GTSF1_Q8WW33_17_LLQCPYDK (UniProt Q8WW33)	-0.185
HAGHL_Q6PII5_188_VEPCNDHVR (UniProt Q6PII5)	0.0214
GTPBP2_Q9BX10_36_GAGSSSGCGGPK (UniProt Q9BX10)	-0.0968

Same assay, conditions: 50 µM; THP-1; incubation time: 4 h

Target	probe-labelled cysteine peptide fold change
GTF3C5_Q9Y5Q8_26_MVCVEYPGVVR (UniProt Q9Y5Q8)	0.0635
HADH_Q16836_211_ALGKHPVSCK (UniProt Q16836)	-0.601
GSN_P06396_215_ATEVPVSWESFNNGDCFILDLGNNIHQWCGSNSNR (UniProt P06396)	-0.0284
GPKOW_Q92917_137_GCTPSGEGADSEPR (UniProt Q92917)	-0.157
HAUS1_Q96CS2_156_CLQEDVK (UniProt Q96CS2)	0.000721
GSR_P00390_134_KVMWNTAVHSEFMHDHADYGFPSCEGK (UniProt P00390)	-0.112
HADHA_P40939_97+110_PGCFIAGADINMLAACK (UniProt P40939)	0.186
GRK6_P43250_425_SLCSQLLCK (UniProt P43250)	-0.232
GRN_P28799_335_GTCEQGPHQVPWMEK (UniProt P28799)	0.0448
GYG1_P46976_89_LHCWSLTQYSK (UniProt P46976)	-0.217
GSN_P06396_331_SEDCFILDHGK (UniProt P06396)	0.0214
GTPBP3_Q969Y2_46_CGIAVIR (UniProt Q969Y2)	0.0463
GSDMD_P57764_191_FSLPGATCLQGEGQGHLSQKK (UniProt P57764)	-0.546
GTF3A_Q92664_222_ETHKEEILCEVCR (UniProt Q92664)	0.00437
GTF3C6_Q969F1_178_SLELEEEEIQMNDSSNLSCEQEK (UniProt Q969F1)	-0.0756
H2AFY_O75367_276_FVIHCNSPVWGADKCEELLEK (UniProt O75367)	-0.0894
GRB2_P62993_198_GACHGQTGMFPR (UniProt P62993)	0.0172
GTF3C1_Q12789_317+320_LQEIHPECGPCK (UniProt Q12789)	-0.239
HAUS3_Q68CZ6_271_LQLAYICAQHQLIHLK (UniProt Q68CZ6)	0.0633

Target	probe-labelled cysteine peptide fold change
GRHPR_Q9UBQ7_57_GVAGAHGLLCLLSDHVDK (UniProt Q9UBQ7)	-0.0355
GSDMD_P57764_467_MCALYASLALLSGLSQEPH (UniProt P57764)	0.0802
GTSF1_Q8WW33_100+103_QETLAESTWQCPPCDEDWDK (UniProt Q8WW33)	0.00661
GRWD1_Q9BQ67_235_LLTGDCQK (UniProt Q9BQ67)	0.0128
GRHPR_Q9UBQ7_57_GVAGAHGLLCLLSDHVDKR (UniProt Q9UBQ7)	-0.0177
GTPBP1_O00178_360_MCPIFQISNVTGENLDLLK (UniProt O00178)	-0.0504
GRK2_P25098_559_DCIMHGYMSK (UniProt P25098)	-0.219
HARS2_P49590_84_ILDLVISCFK (UniProt P49590)	-0.281
GTF3A_Q92664_191_AHEGYVCQK (UniProt Q92664)	0.122
GSPT1_P15170_381+387_GIEEEEILPGFILCDPNNLCHSGR (UniProt P15170)	0.00535
GTF3C2_Q8WUA4_608_LYPFQCFLAHDQAVR (UniProt Q8WUA4)	0.109
GTF2I_P78347_215_SILSPGGSCGPIK (UniProt P78347)	-0.16
H2AFY_O75367_276+286_FVIHCNSPVWGADKCEELLEK (UniProt O75367)	-0.186
HARS_P12081_224_ILDGMFAICGVSDSK (UniProt P12081)	-0.0711
GRN_P28799_534_DVECGEGHFCHDNQTCCR (UniProt P28799)	-0.106
GTSF1_Q8WW33_17_LLQCPYDK (UniProt Q8WW33)	-0.222
HAGHL_Q6PII5_188_VEPCNDHVR (UniProt Q6PII5)	0.0203
GTPBP2_Q9BX10_36_GAGSSSGCGGPK (UniProt Q9BX10)	-0.151
